Source: PMC10935424

Experiments:
[1] = target: T1, OsSnRK1a (yeast two-hybrid fusion) (rice (Oryza sativa)) (UniProt Q852Q2); assay: two-hybrid; pGADT7 and pGBKT7 constructs co-transformed into yeast AH109; growth on SD-Trp-Leu-His-Ade at 30 °C for 3 days; empty AD or BD vectors as negative controls
T1 sequence: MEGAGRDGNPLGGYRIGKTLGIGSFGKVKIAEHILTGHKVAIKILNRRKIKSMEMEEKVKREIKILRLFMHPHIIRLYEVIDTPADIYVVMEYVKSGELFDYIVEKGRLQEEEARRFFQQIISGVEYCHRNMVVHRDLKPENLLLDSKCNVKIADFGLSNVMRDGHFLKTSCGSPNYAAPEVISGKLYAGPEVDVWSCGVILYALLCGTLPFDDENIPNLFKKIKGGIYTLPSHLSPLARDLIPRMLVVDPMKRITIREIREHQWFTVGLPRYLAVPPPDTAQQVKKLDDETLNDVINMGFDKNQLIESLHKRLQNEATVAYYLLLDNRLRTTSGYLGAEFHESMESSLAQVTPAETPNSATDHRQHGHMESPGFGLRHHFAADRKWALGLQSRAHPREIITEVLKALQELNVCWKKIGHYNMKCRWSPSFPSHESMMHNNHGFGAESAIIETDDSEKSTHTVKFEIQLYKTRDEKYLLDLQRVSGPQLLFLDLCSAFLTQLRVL

[2] = target: T2, OsSnRK1a fused with the N-terminal (nLUC) half of luciferase (rice (Oryza sativa)) (UniProt Q852Q2); assay: split reporter; split-luciferase complementation; nLUC and cLUC fusions transiently co-expressed in N. benthamiana leaves; 1 mM luciferin, luminescence imaged after three days
T2 sequence: T1 sequence

[3] = target: T3, OsSnRK1a–GFP (rice (Oryza sativa)) (UniProt Q852Q2); assay: co-IP; OsSnRK1a-GFP co-expressed with beta subunit-HA in N. benthamiana leaves; IP with GFP-Nanoab-Agarose beads, 4 °C, 2 h; 50 mM Tris-HCl pH 7.5, 150 mM NaCl, 1% IGEPAL CA-630 extraction buffer; blots with anti-GFP and anti-HA; GFP co-expression as negative control
T3 sequence: T1 sequence

OsSnRK1β1 (yeast two-hybrid fusion) was tested, and the binding [1] was “binds”.
For “OsSnRK1β1 fused with the C-terminal (cLUC) half of luciferase”, the binding [2] was “binds”.
OsSnRK1β1-HA was tested, and the binding [3] was “binds”.
OsSnRK1β3 (yeast two-hybrid fusion) was tested, and the binding [1] was “binds”.
For “OsSnRK1β3 fused with the C-terminal (cLUC) half of luciferase”, the binding [2] was “binds”.
In the case of OsSnRK1β3-HA, the binding [3] is reported as “binds”.

No constants are given. Whether binding was seen depends on the method and setting. A result given as binding can be weak or reduced; the word gives no strength. Tags and fused reporters may be left off the sequences shown. For part of these data: Binding seen in cells or lysates may run through a third protein.
